Data as given in PubChem BioAssay AID1224829 (NIAID, 2016)

Aim: 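Secondary check of hits that alter LPS-induced p65 translocation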 (follow-up of hits)
Cells: mouse RAW264.7 G9 macrophage reporter cells
Reagents: single siRNA against mouse genes, 100 nM
Timing: 2 days of siRNA knock-down, then 40 min of LPS before fixing
Challenge: LPS (Salmonella minnesota R595) at 10 ng/ml
Read-out: 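Imaging of GFP-p65 after 40 min of LPS; nuclear over perinuclear ring intensity ratio, scaled to plate median and non-targeting control wells, given as z-score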
Reading the numbers: p65 translocation z-score: higher = more nuclear NF-kappaB p65 after LPS
Call rule: 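Active means the replicate-mean z-score lies beyond plus or minus 2, in either direction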
Calls: active = changed p65 translocation (either direction); inactive = no clear change
The whole screen tested about 3,800 reagents; shown is an unselected part. 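Calls cover raised and lowered translocation; gene median uses one vendor's three siRNAs; qiagen siRNAs acted more weakly than ambion siRNAs.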 The numbers tell different reagents against one gene apart. Not all columns of the deposit are shown. Reagent sequences are not shown.

Gene	siRNA no.	siRNA vendor or control pool	p65 translocation z-score, replicate mean	p65 translocation z-score, replicate 1	p65 translocation z-score, replicate 2	Outcome
Usp8	1	ambion single siRNA	2.46	2.64	2.29	active
Usp8	2	ambion single siRNA	1.1	2.39	-0.197	inactive
Usp8	3	ambion single siRNA	-3.14	-2.59	-3.68	active
Usp8	4	qiagen single siRNA	-1.07	-0.789	-1.34	inactive
Usp8	5	qiagen single siRNA	1.04	1.67	0.401	inactive
Usp8	6	qiagen single siRNA	-5.07	-3.78	-6.36	active
Idh3g	1	ambion single siRNA	1.51	0.519	2.5	inactive
Idh3g	2	ambion single siRNA	-5.66	-7.01	-4.31	active
Idh3g	3	ambion single siRNA	-3.9	-4.68	-3.11	active
Idh3g	4	qiagen single siRNA	-0.496	-1.37	0.377	inactive
Idh3g	5	qiagen single siRNA	-2.26	-1.88	-2.64	active
Idh3g	6	qiagen single siRNA	-2.14	-3.07	-1.22	active

3 entries from above in another layout.
{"Gene":"Idh3g","siRNA no.":2,"siRNA vendor or control pool":"ambion single siRNA","p65 translocation z-score, replicate mean":-5.66,"p65 translocation z-score, replicate 1":-7.01,"p65 translocation z-score, replicate 2":-4.31,"Outcome":"active"}
{"Gene":"Idh3g","siRNA no.":3,"siRNA vendor or control pool":"ambion single siRNA","p65 translocation z-score, replicate mean":-3.9,"p65 translocation z-score, replicate 1":-4.68,"p65 translocation z-score, replicate 2":-3.11,"Outcome":"active"}
{"Gene":"Idh3g","siRNA no.":4,"siRNA vendor or control pool":"qiagen single siRNA","p65 translocation z-score, replicate mean":-0.496,"p65 translocation z-score, replicate 1":-1.37,"p65 translocation z-score, replicate 2":0.377,"Outcome":"inactive"}

Continued:
Gene	siRNA no.	siRNA vendor or control pool	p65 translocation z-score, replicate mean	p65 translocation z-score, replicate 1	p65 translocation z-score, replicate 2	Outcome
Angel2	1	ambion single siRNA	-3.44	-4.73	-2.16	active
Angel2	2	ambion single siRNA	-2.58	-2.58		active
Angel2	3	ambion single siRNA	-3.6	-3.6		active
Angel2	4	qiagen single siRNA	1.64	-0.239	3.51	inactive
Angel2	5	qiagen single siRNA	-0.241	-1.26	0.776	inactive
Angel2	6	qiagen single siRNA	-2.57	-2.57		active
Klf12	1	ambion single siRNA	2.73	3.67	1.79	active
Klf12	2	ambion single siRNA	-1.92	-2.66	-1.17	inactive
Klf12	3	ambion single siRNA	-3.73	-2.25	-5.2	active
